Data as given in PubChem BioAssay AID602196 (INSERM, 2012).

Aim: 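Modifiers of cisplatin sensitivity in A549 cells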
Cell system: human A549 lung cancer cells
Reagents: siRNA pair against human genes
Time to read-out: 48 h transfection before cisplatin; time from cisplatin to read-out not stated
Conditions: cisplatin at a dose killing half of control-siRNA cells; exact dose and duration not given
Measured: 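Shift in cisplatin death relative to control siRNA, from -50 (all cells die) to +50 (no cells die); siRNAs harmful on their own scored 0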
Scale: two-siRNA summed score (-2 to +2): higher = both siRNAs protect from cisplatin killing; -2 means both sensitise
Hit rule: 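Each siRNA scores 0 if harmful alone by LDH or WST-1, otherwise +1 if it reduces and -1 if it increases cisplatin killing; a gene is active when both siRNAs agree (sum +2 or -2)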
Calls: active = both siRNAs shift cisplatin killing the same way; inactive = no consistent shift, or siRNA harmful alone
The whole screen tested about 23,000 reagents; shown is a random part of them. 455 of them (2%) were called active. 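Active includes both protection and sensitisation; some change values fall well beyond the stated -50 to +50 range.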 Reagents against one gene are numbered here. Not all columns of the deposit are shown. Not given: the amount of reagent.

{"gene symbol": "KRT39", "reagent": 1, "two-siRNA summed score (-2 to +2)": 0, "Outcome": "inactive"}
{"gene symbol": "RARRES2", "reagent": 1, "two-siRNA summed score (-2 to +2)": 0, "Outcome": "inactive"}
{"gene symbol": "DDAH2", "reagent": 1, "two-siRNA summed score (-2 to +2)": -1, "Outcome": "inactive"}
{"gene symbol": "ZFYVE26", "reagent": 1, "two-siRNA summed score (-2 to +2)": 0, "Outcome": "inactive"}
{"gene symbol": "CPED1", "reagent": 1, "two-siRNA summed score (-2 to +2)": 0, "Outcome": "inactive"}
{"gene symbol": "SLITRK6", "reagent": 1, "two-siRNA summed score (-2 to +2)": -1, "Outcome": "inactive"}
{"gene symbol": "TEX55", "reagent": 1, "two-siRNA summed score (-2 to +2)": 0, "Outcome": "inactive"}
{"gene symbol": "LOC344332", "reagent": 1, "two-siRNA summed score (-2 to +2)": 0, "Outcome": "inactive"}
{"gene symbol": "PPIL1", "reagent": 1, "two-siRNA summed score (-2 to +2)": 0, "Outcome": "inactive"}
{"gene symbol": "LOC391770", "reagent": 1, "two-siRNA summed score (-2 to +2)": 0, "Outcome": "inactive"}
{"gene symbol": "ZNF839P4", "reagent": 1, "two-siRNA summed score (-2 to +2)": 0, "Outcome": "inactive"}
{"gene symbol": "ZNF839P4", "reagent": 2, "two-siRNA summed score (-2 to +2)": 1, "Outcome": "inactive"}
{"gene symbol": "OARD1", "reagent": 1, "two-siRNA summed score (-2 to +2)": 1, "Outcome": "inactive"}
{"gene symbol": "SCTR", "reagent": 1, "two-siRNA summed score (-2 to +2)": -1, "Outcome": "inactive"}
{"gene symbol": "TAMM41", "reagent": 1, "two-siRNA summed score (-2 to +2)": 0, "Outcome": "inactive"}
{"gene symbol": "LOC341912", "reagent": 1, "two-siRNA summed score (-2 to +2)": 0, "Outcome": "inactive"}
{"gene symbol": "RAP1GDS1", "reagent": 1, "two-siRNA summed score (-2 to +2)": -1, "Outcome": "inactive"}
{"gene symbol": "LOC440946", "reagent": 1, "two-siRNA summed score (-2 to +2)": 0, "Outcome": "inactive"}
{"gene symbol": "TADA1", "reagent": 1, "two-siRNA summed score (-2 to +2)": 1, "Outcome": "inactive"}
{"gene symbol": "TTC9", "reagent": 1, "two-siRNA summed score (-2 to +2)": 0, "Outcome": "inactive"}
{"gene symbol": "ARSK", "reagent": 1, "two-siRNA summed score (-2 to +2)": 1, "Outcome": "inactive"}
